# Results of single-concentration screens

Mtb cholesterol medium: 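Whole-cell growth test on Mycobacterium tuberculosis, read after 4 days in a medium based on cholesterol and the lipid DPPC; the read-out is not stated. Concentration: 50 µM. Higher reads as more growth inhibition (inferred: compounds with an IC50 in retests scored well above the rest). Of about 69,000 compounds tested this way, about 370 (0.54%) reached 50% or more in at least one test.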
Mtb glucose medium: 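Whole-cell growth test on Mycobacterium tuberculosis, read after 3 days in glucose-containing 7H9 medium; the read-out is not stated. Compounds at 50 µM. Direction is inferred from retests: higher values go with more growth inhibition. Size under these conditions: about 69,000 compounds, about 760 of them at 50% or above in at least one test.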

Values are the deposited “Percent Effect”, in %.
The record does not define 0% and 100%; most values in the screen are far below 50% and negative numbers occur (in some assays of this library far below -100).
Compounds were drawn at random from those tested, without regard to their results.
Two or more numbers in one place are separate tests of the same structure; such repeats can differ widely.

Compound,Mtb cholesterol medium,Mtb glucose medium
COc1cccc(CN2CCCCCC2c2cccs2)c1O (centres unmarked),2.015,15.1
Cc1cc2c(=O)n3c(nc2s1)CCN(C(=O)c1sc(C)nc1C)CC3,-2.841,57.14
CC(C)NC1CCc2[nH]c(=O)ccc2C1.O=C(O)C(F)(F)F (centres unmarked),-1.843,11.01
CCCc1nc(C)cc(N2Cc3cnn(CCO)c3C2)n1,-19.93,19.96
O=C(CCN1CCOCC1)NC1CCCN(CC2CCCCC2)C1 (centres unmarked),11.36,-16.05
[H][C@]12CN(c3nc4ccccc4s3)CC[C@@]1(O)CCN(S(=O)(=O)N(C)C)C2,14.26,7.094 & 4.73
Cc1nn(C)c2ncnc(N3CCCC(OCc4ccccn4)C3)c12 (centres unmarked),13.42,2.165
Cc1ncc2c(n1)CCN(Cc1ncc(C(C)(C)C)o1)C2,4.535,9.467
CCS(=O)(=O)N1CCC2(CC(=O)N(c3cncnc3)C2)C1 (centres unmarked),-13.3,21.69 & -34.21
c1ccc(-c2nc(CN3CCCC(Cn4cncn4)C3)cs2)cc1 (centres unmarked),11.01,27.33
CCn1ccc(NC(=O)CCc2c(C)nn(C)c2C)n1,-23.5,-30.54
O=C(NCCC1CC1)NCc1cccc(-n2ccnc2)c1,-7.854,-16.78
COc1ccccc1CCN(C)C(=O)NC(C)c1nncn1C (centres unmarked),-2.396,8.83
Cc1nc[nH]c1-c1nccn1CCN1CCCC1=O,-4.495,-14.54
O=C(NCC(=O)N1CCCCC1)c1sccc1C1CC1,-0.1198,-13.65
Cc1noc(C)c1CN1CCOC2(CCCN(c3ccccn3)C2)C1 (centres unmarked),5.429,19.54 & 8.352
CC(=O)c1cnc(NCCc2csc(-c3cnccn3)n2)nc1C,-15.6,-13.98
Cc1n[nH]c(C)c1NC(=O)CN1CCCC(CNC(=O)C(C)(C)C)C1 (centres unmarked),-7.548,-6.05
O=C(O)C(F)(F)F.[H][C@@]12CN(C(=O)Cc3ccsc3)C[C@]1([H])OCCN2CC1CC1,-2.614,18.67 & -4.647
CC(C)CCc1n[nH]c(C(=O)O)c1Br,-3.377,1.649 & 2.074
Cc1cc(NCc2cc3n(n2)CCCN(C(=O)N(C)C)C3)ncn1,-8.316,-14.58
COc1ccc(-c2nc3c([nH]2)CCNC3C(=O)O)c2ccc(C)nc12 (centres unmarked),-13.09 & 25.12,-11.76
O=S(=O)(Cc1ccc(F)cc1)N1CCN(CC(O)C2CC2)CC1 (centres unmarked),5.89,18.82
CCNC(=O)N(C)Cc1ccc(SC)c(OC)c1,-1.354 & 12.88,17.85
CCc1ocnc1C(=O)N1CCOC(c2nc(C(C)C)n[nH]2)C1 (centres unmarked),-14.45,-9.548
CC(O)CN1CCN(Cc2coc(-c3ccc(Cl)cc3)n2)CC1 (centres unmarked),5.415,19.27
N#Cc1ccc(NCc2cccnc2N2CCC(C(N)=O)CC2)cn1,-3.313,0.6004 & 4.241
COc1ccc(CC(=O)Nc2c(C)nc(N3CCCC3)nc2C)cc1,41.91,52.97 & 36.18
Cn1cnnc1C1CCCN(C(=O)NCCOc2ccccc2)C1 (centres unmarked),-8.27,2.369
CC(C)n1ccc(C(=O)NCC(O)c2c(Cl)cccc2Cl)n1 (centres unmarked),-12.02,3.828
Cc1cc(C)n(CC(C)Nc2nc(-c3ccncc3)nc3c2CNC3)n1 (centres unmarked),-40.51,25.74
CCCc1cc(C(=O)NCCCC(=O)N2Cc3ccccc3C2)[nH]n1,-5.078,70.96
O=S1(=O)CCC(N(Cc2nc(-c3ccccn3)no2)Cc2cccs2)C1 (centres unmarked),6.464,-4.909
[H][C@@]12CN(Cc3ccoc3)CCO[C@]1([H])CN(C(=O)C1CC(F)(F)C1)C2,-22.68,3.918
[H][C@@]12CN(Cc3cccnc3)C[C@]1([H])CN(C(=O)c1cccn1C)C2,-3.952,13.78
CCc1nnc(C(C)N2CCCN(C(=O)OCC(C)C)CC2)o1 (centres unmarked),1.562,27.91
COc1cc(CNCc2c(C(C)C)nn(C)c2N(C)C)ccn1,-17.8,13.26
Cc1cccnc1CN1CCCCC1c1ccn2ccnc2n1 (centres unmarked),1.456,7.516
O=C1NCC2(CCCN(Cc3cccnc3)C2)Oc2ccccc21 (centres unmarked),-5.177,14.17
CC(C)Cc1cc(C(=O)NCCN2CCCS2(=O)=O)[nH]n1,4.986,4.542
CC(C)NC(=O)Nc1ccc(-c2nc(C(C)C)no2)cc1,9.213,26.21
Cc1csc(CNC(=O)N(C)Cc2ccc3c(c2)OCO3)n1,13.07,2.403
Cn1cc(C(O)CNC(=O)Nc2cc(F)ccc2-n2cccn2)cn1 (centres unmarked),-4.304,6.456
COc1ccc(S(=O)(=O)Cc2cc(C)on2)cc1,-22.9,-6.82
Cc1ccc(NC(=O)Cn2ccc3c(=O)n(C)ccc32)cc1F,11.73,29.3
Cc1noc(CCCC(=O)NCC2CCS(=O)(=O)C2)n1 (centres unmarked),-17.72,-31.88
CCOc1ncccc1CNC(=O)NCC(O)c1ccccc1OC (centres unmarked),0.5732,-13.31
Cc1nc2c(c(N3CCCC(CO)C3)n1)CCN(Cc1ccco1)CC2 (centres unmarked),-0.2525,19.54 & -3.898
N#Cc1ccccc1C(=O)NCCC1CN(Cc2ccco2)CCO1 (centres unmarked),-5.989,4.97
CCN1CCC2(CC1)CC(NC(=O)c1csnn1)c1ccccc1O2.O=C(O)C(F)(F)F (centres unmarked),12.87,50.66
Cc1ccc(CN2CC3(CCN(C(=O)C4CC4)CC3)CC2C(=O)O)o1 (centres unmarked),-0.2468,1.804
Cc1cccc(C)c1OCCNC(=O)CNC(=O)C1CCCC1,-14.31,6.65
CC(C)OCc1cccc(NC(=O)N(C)Cc2ncnn2C)c1,5.042,-23.47
O=C(O)C(F)(F)F.O=C(O)C(F)(F)F.[H][C@@]12C[C@@H](Oc3cncnc3)CN1CCN(C(=O)Cc1ccccn1)C2,-6.31 & 0.8905,-20.41
CN(Cc1ccsc1)C(=O)Nc1ccc(=O)n(C)c1,8.859,5.075
c1cncc(CN2CCC3(CCCN(c4nncs4)C3)C2)c1 (centres unmarked),1.199 & -9.651,1.882 & -3.075
CC(=O)N1CCN(C(=O)CCCc2nnc(-c3ccccc3)o2)CC1,3.044,-10.75
CN1CCCC(c2nccnc2-c2cccc(Cl)c2)C1 (centres unmarked),-5.614 & -0.8689,-19.04
Cc1noc(C2CCCN(C(=O)c3cc(Cl)c(Cl)n3C)C2)n1 (centres unmarked),2.258 & 11.94,4.158
Cn1cnc2c1CCN(Cc1ccc(C(=O)N3CCCC3)cc1)C2,-10.84,-31.43
CCN(CC)C(=O)Cn1ccc2cc(NC(=O)C3CCCO3)ccc21 (centres unmarked),7.731,22.85
O=C(c1ccc[nH]1)N1CCN(Cc2ccncc2)c2ncccc2C1,6.676,0.2861
Cc1oncc1C(=O)N1CCC2(CCN(Cc3cccnc3)C2=O)C1.O=C(O)C(F)(F)F (centres unmarked),-3.008,5.086
CCN(C)CC(C)Cn1cnc(-c2ccccc2)c1C (centres unmarked),21.75,1.523 & 4.136
O=C(NCCCN1CCc2ccccc2C1)c1ccccc1Br,4.786,27.31
COc1ccc2c(c1)CCCN2Cc1nc2c(cnn2C)c(=O)[nH]1,-6.806,-16.06
CC1(C)CN(C(=O)c2ncc(F)cc2F)CCC1(O)CN1CCOCC1 (centres unmarked),-15.08,0.3982
COCCN(Cc1ccc(C)o1)C(=O)Nc1ncc(C)s1,5.848,6.892 & 0.1784
Cc1cs/c(=N\C(=O)c2c3c(nc4onc(C)c24)CCC3)[nH]1,-8.246,-17
CN(C)S(=O)(=O)N1CCCC(CCC(=O)Nc2ccc(Cl)cc2)C1 (centres unmarked),-32.8,-35.7
CCCN1CCC(N2CCC(Cn3cc(CC(C)O)nn3)CC2)CC1 (centres unmarked),4.559,1.242 & 0.3452
CN(C)C(=O)COC1COC2(CCN(CC3CCOCC3)CC2)C1.O=C(O)C(F)(F)F (centres unmarked),-9.309,1.164
CC(Cn1cccn1)NCC(=O)NC1(C#N)CCCCC1 (centres unmarked),4.143,-39.13
O=C(NC1CCc2[nH]c(=O)ccc2C1)C1CCOCC1 (centres unmarked),-15.48,-7.13 & -21.18
CN1CCN(Cc2ccncc2)C(=O)C12CCN(c1nccs1)CC2.O=C(O)C(F)(F)F.O=C(O)C(F)(F)F,23.05,-1.197 & -3.429
[H][C@@]12CCCO[C@]1([H])[C@H](OCC1CCCC1)CN2C(=O)c1ccnnc1,-2.858 & -7.961,-21.52
CCn1c(CN2CCCC2)nnc1C1CCN(Cc2ccncc2)CC1,2.969,-3.856 & 16.53
CCCN(C(=O)c1cnc(C)cn1)c1nc2c(s1)CCc1c-2cnn1C,7.557,17.57
CCOCC(=O)N1CCCn2c(nnc2Cn2cccc2)C1,-12.27,-10.29
CCC1CN(CC(=O)NC2(C#N)CCCC2)CCN1CCOC (centres unmarked),8.458,-2.687 & -5.797
Cc1cnn(CCNCc2nnc(Cc3ccccc3)o2)c1,-6.158,-5.773 & 8.436
CN(C)c1cncc(C2CCCN2S(=O)(=O)c2cn(C)cn2)n1 (centres unmarked),16.79,-25.02
CN(C)CC(=O)N1CCc2ncnc(-c3ccoc3)c2CC1,18.53,-0.5683 & 21.98
Cc1ccc(C(=O)NCc2cccnc2N(C)C)o1,10.65,32.1

Once more, the final 9:

| Compound | Mtb cholesterol medium | Mtb glucose medium |
|---|---|---|
| `[H][C@@]12CCCO[C@]1([H])[C@H](OCC1CCCC1)CN2C(=O)c1ccnnc1` | -2.858 & -7.961 | -21.52 |
| `CCn1c(CN2CCCC2)nnc1C1CCN(Cc2ccncc2)CC1` | 2.969 | -3.856 & 16.53 |
| `CCCN(C(=O)c1cnc(C)cn1)c1nc2c(s1)CCc1c-2cnn1C` | 7.557 | 17.57 |
| `CCOCC(=O)N1CCCn2c(nnc2Cn2cccc2)C1` | -12.27 | -10.29 |
| `CCC1CN(CC(=O)NC2(C#N)CCCC2)CCN1CCOC` (centres unmarked) | 8.458 | -2.687 & -5.797 |
| `Cc1cnn(CCNCc2nnc(Cc3ccccc3)o2)c1` | -6.158 | -5.773 & 8.436 |
| `CN(C)c1cncc(C2CCCN2S(=O)(=O)c2cn(C)cn2)n1` (centres unmarked) | 16.79 | -25.02 |
| `CN(C)CC(=O)N1CCc2ncnc(-c3ccoc3)c2CC1` | 18.53 | -0.5683 & 21.98 |
| `Cc1ccc(C(=O)NCc2cccnc2N(C)C)o1` | 10.65 | 32.1 |

From ChEMBL document CHEMBL3988442, “University of Dundee, Small-Polar-MMV Screening Library” (2021).